From PubChem BioAssay AID624297 (National Center for Advancing Translational Sciences (NCATS), 2012)
“And” between values parts separate entries of the source, which are not always exact repeats. Identical values can stand only once. The campaign covered roughly 340,000 compounds. About 6,200 (1.8%) were called active. Inconclusive means that the source gave no clear call. Such entries were picked first, then a sample of the others. Calls come from the whole dose curve; as a rule, active = well fitted activation curve with a large enough effect; inconclusive = small, poorly fitted or top-dose-only effect; inactive = no such curve, though single readings can be large or run the other way. Where the call is inconclusive, the potency comes from a doubtful curve fit.

Experiment: A quantitative high throughput screen for small molecules that induce DNA re-replication in SW480 colon adenocarcinoma cells. For re-replication activation: % of control where 0% means no effect. Note: nearly all actives have a fitted effect of over 55% in size.
Conditions: Hoechst DNA content imaging, 48 h; re-replication activation: at 46.1 µM (top of the series) unless noted
How it was run: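 Readout is total intensity of Hoechst-stained nuclei, excited at 405 nm and collected at 500-530 nm. Compound treatment lasted 48 hr at 37 C in 5% CO2 before staining.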
Potency is the fitted concentration of half-maximal effect.

SMILES | Potency | re-replication activation
O=C(COc1ccc(Cl)cc1)NNC(=O)c1ccccn1 | inactive | –
COc1ccc(-c2ccc3nnc(SCC(N)=O)n3n2)cc1 | inconclusive: 18.4 µM [activator, single point] | –
Cc1ccccc1CS(=O)(=O)c1cnc2ccccc2n1 | inconclusive: 18.4 µM [activator, single point] | –
Cc1sc(NC(=O)c2ccc(F)cc2)c(CN2CCCCCC2)c1C | inactive | –
COc1cc2ccccc2cc1C(=O)N1CCN(C(C)=O)CC1 | inconclusive: 0.13 µM [activator, full curve] | –
O=C(N/N=C(\c1ccccc1)c1ccccn1)c1ccccc1Cl | inconclusive: 3.26 µM [activator, full curve] | –
NC(=O)C1(Nc2ccccc2)CCCC1 | inconclusive: 29.1 µM [activator, partial curve, poor fit] | –
COc1ccc(COC(=O)C2=C(C)NC(=O)NC2c2cc(Br)c(O)c(OC)c2)cc1 (stereo not drawn) | inactive | –
COc1ccccc1/C=N/n1c(N)c(C(=O)NC2CCCCC2)c2nc3ccccc3nc21 | active: 4.11 µM | –
CCOC(=O)c1ccc(N2C(=O)CC(N3CCCC(C)C3)C2=O)cc1 (stereo not drawn) | inactive | –
Clc1ccccn1 | inconclusive: 7.31 µM [activator, partial curve, poor fit] | –
COc1nc(OC)nc(N2CCC(C(=O)NCc3cccs3)CC2)n1 | inactive | –
Cc1cccc(NC(=O)c2ccc(OCc3c(C)noc3C)cc2)c1C | inconclusive: 35.5 µM [activator, single point] | –
Cc1cc(=O)[nH]c2c(C)cc(S(=O)(=O)N3CCOCC3)cc12 | inconclusive: 0.651 µM [activator, partial curve, poor fit] | –
CCOc1cc(/C=C2\SC(=S)N(N3CCOCC3)C2=O)ccc1O | inconclusive: 29.1 µM [activator, single point] | –
COc1cc(/C=C(\C#N)c2nc3ccccc3[nH]2)cc(Br)c1OCc1ccc(F)cc1 | inconclusive: 20.6 µM [activator, single point] | –
CC1CCc2c(sc(NC(=O)c3cccs3)c2C(=O)O)C1 (stereo not drawn) | inactive | –
Cc1cc(C(=O)CN2C(=O)C(=O)N(Cc3ccccc3)C2=O)c(C)n1Cc1ccccc1 | inactive | –
CC(=O)NCCc1nc2cc(NC(=O)c3ccc(Cl)cc3)ccc2n1C | inconclusive: 2.91 µM [activator, single point] | –
CCCCNc1c(-c2ccc(OC)c(Sc3ccc(OC)cc3)c2)nc2ccccn12 | inconclusive: 32.6 µM [activator, partial curve, poor fit] | –
CC(=O)OC1CC(c2cc(C(C)(C)C)c(O)c(C(C)(C)C)c2)=NO1 (stereo not drawn) | active: 14.6 µM | –
CCOc1cc(/C=C(\C#N)c2nc3ccccc3[nH]2)ccc1OC(C)C(=O)O (stereo not drawn) | inconclusive: 7.31 µM [activator, partial curve, poor fit] | –
O=C(/C=C/Nc1ccc([N+](=O)[O-])cc1)c1ccc(Br)cc1 | inconclusive: 29.1 µM [activator, single point] | –

SMILES | Potency | re-replication activation
CCOC(=O)CCC(=O)O[C@H]1[C@H](O[C@@H]2[C@@H](C)[C@H](O[C@H]3C[C@@](C)(OC)[C@@H](O)[C@H](C)O3)[C@@H](C)C(=O)O[C@H](CC)[C@@](C)(O)[C@H](O)[C@@H](C)C(=O)[C@H](C)C[C@@]2(C)O)O[C@H](C)C[C@@H]1N(C)C | inconclusive: 2.91 µM [activator, single point] | –
Clc1ccc(SCCCCN2CCNCC2)cc1 | inconclusive: 29.1 µM [activator, single point] | –
Cc1ccc2nc(-c3ccncc3)c(NC3CCCC3)n2c1 | inconclusive: 11.6 µM [activator, partial curve] | –
CCCn1c(SCC(=O)c2ccc3c(c2)OCCO3)nnc1C(C)C | inconclusive: 29.1 µM [activator, single point] | –
Oc1ccc(C=NC2CCCCC2)cc1 | inconclusive: 6.51 µM [activator, partial curve] | –
O=C(COc1ccc2c(c1)C(=O)CC1(CCCCC1)O2)NCc1ccccc1 | inconclusive: 29.1 µM [activator, single point] | –
O=C(NCCO)/C(=C\c1ccco1)NC(=O)c1ccco1 | inconclusive: 25.9 µM [activator, single point] | –
CN(C)C(=O)CSc1nnc([C@H](Cc2c[nH]c3ccccc23)NC(=O)OC(C)(C)C)o1 | inactive | –
Nc1ccc(C(=O)Nc2ccccc2N)cc1 | inconclusive: 23.7 µM [activator, partial curve] and inconclusive: 23.1 µM [activator, single point] | –
CCCOc1ccccc1C1C(C(=O)OC)=CN(C(C)C)C=C1C(=O)OC | inconclusive: 23.1 µM [activator, single point] | –
CC(=O)N1CCC2(CC1)CC(=O)c1cc(OCC(=O)N3CCOCC3)ccc1O2 | active: 20.6 µM | –
O=C(CCC1COc2ccccc2O1)NCc1ccco1 (stereo not drawn) | inconclusive: 29.1 µM [activator, single point] | –
O=C(Nc1cccc(C(F)(F)F)c1)C1CCN(S(=O)(=O)c2ccc(N3CCCC3=O)cc2)CC1 | inconclusive: 7.31 µM [activator, single point] | –
COc1ccc(/C=N/NC(=O)C(C)N(c2ccc(OC)cc2)S(C)(=O)=O)cc1 (stereo not drawn) | active: 18.4 µM | –
COc1ccccc1C(=O)Nc1nc2cc3c(cc2s1)OCO3 | inactive | –
Cc1ccsc1C(=O)N(C)C1CCS(=O)(=O)C1 (stereo not drawn) | – | inconclusive: -43.4% [activator]
c1ccc(-c2ccccc2OCCCCn2ccnc2)cc1 | – | inactive: -2.84% [at 9.22 µM]
CCOc1ccccc1N1CCN(C(=O)[C@@H]2CCCN2C2=NS(=O)(=O)c3ccccc32)CC1 | inactive | –
CS(=O)(=O)c1ccc2nnn(OCC(=O)Nc3ccc(Br)cc3Br)c2c1 | inconclusive: 8.2 µM [activator, partial curve] | –
CCSc1nc2ccccc2c(=O)n1CCc1ccc(OC)c(OC)c1 | inconclusive: 29.1 µM [activator, single point] | –
OC1(c2ccc(OC(F)F)cc2)CSC(=Nc2cccnc2)N1Cc1ccco1 (stereo not drawn) | inactive | –
S=C1NCN(C2CCCCC2)CN1c1ccccc1 | inconclusive: 1.03 µM [activator, full curve] | –
O=C(O)CC1(CC(=O)Nc2ccc3ccccc3n2)CCCCC1 | inactive | –

SMILES | Potency | re-replication activation
COc1ccc(OC)c(CN2CCN(CCCc3ccccc3)C(CCO)C2)c1 (stereo not drawn) | inconclusive: 2.31 µM [activator, single point] | –
N=c1c2c(-c3ccccc3)c(-c3ccccc3)n(Cc3ccccc3)c2ncn1CCCn1ccnc1 | inconclusive: 20.6 µM [activator, single point] | –
COc1ccc(/C=C/C(=O)c2ccc3c4c(cccc24)CC3)cc1OC | inconclusive: 13 µM [activator, partial curve, poor fit] | –
O=C(O)/C(=C\c1ccccc1OC(F)F)Sc1nnc(-c2ccc(F)cc2)o1 | inconclusive: 29.1 µM [activator, single point] | –
CN(Cc1ccccc1)C(=O)CCS(=O)(=O)c1ccc2c(c1)oc(=O)n2C | inconclusive: 32.6 µM [activator, partial curve, poor fit] | –
COc1cccc(N2CCN(C(=O)c3cc(-c4ccc(F)cc4)[nH]c3C)CC2)c1 | inactive | –
O=c1cc(O)nc(SCc2ccccc2)n1-c1ccc(Cl)cc1 | inconclusive: 0.0046 µM [activator, full curve, poor fit] | –
CC1=C(C(=O)OCc2ccccc2)C(c2cccc([N+](=O)[O-])c2)NC(=O)N1 (stereo not drawn) | inactive | –
CCCCn1c(=N)n(CC(=O)c2ccc(Br)s2)c2ccccc21 | inconclusive: 20.6 µM [activator, single point] | –
O=C(Nc1nnc(Cc2ccccc2F)s1)Nc1ccccc1F | – | inconclusive: 24.3% [activator]
CCOC(=O)C1=C(C)NC(=S)NC1c1ccc(-c2cccc(Cl)c2C)o1 (stereo not drawn) | inconclusive: 25.9 µM [activator, single point] | –
COc1ccccc1-c1nnc(NC(=O)CCS(=O)(=O)c2ccccc2)o1 | inconclusive: 18.4 µM [activator, single point] | –
O=C(CCCN1C(=O)/C(=C/c2ccccc2OC(F)F)SC1=S)Nc1cccnc1 | inconclusive: 29.1 µM [activator, single point] | –
CC(=O)Nc1ccc(S(=O)(=O)NNC2=NS(=O)(=O)c3ccccc32)cc1 | inactive | –
COc1ccc(CCNC(=O)c2cn(C)c3ccc(S(=O)(=O)N4CCOCC4)cc3c2=O)cc1OC | inconclusive: 0.651 µM [activator, full curve, poor fit] | –
Cc1ccc(S(=O)(=O)N2CCCC2C(=O)OCc2ccco2)cc1 (stereo not drawn) | inconclusive: 18.4 µM [activator, single point] | –
CCOc1cc(/C=N\O)cc(Cl)c1OCC | inactive | –
CCc1ccc(OCc2nnc(SCCN3CCOCC3)n2C)cc1 | inactive | –
O=S(=O)(c1ccc(OCC(O)CNC23CC4CC(CC(C4)C2)C3)c(Cl)c1)N1CCOCC1 (stereo not drawn) | active: 16.4 µM | –
Cc1ccc2nc(-c3cccc(NC(=O)c4ccc5c(c4)OCCO5)c3)oc2c1 | inactive | –
CCOc1ccc(N(C)S(=O)(=O)c2ccc(C)c(C(=O)NCCc3ccc(OC)cc3)c2)cc1 | inconclusive: 29.1 µM [activator, single point] | –
CC(O)CN(CC(C)O)c1ccc2c(c1)Cc1cc([N+](=O)[O-])ccc1-2 (stereo not drawn) | active: 8.2 µM | –
